The supplement of paper PMC10849652
The list shows a part of the results.

The chains behind the UniProt entries cited, without tags or fusion partners. Where a name states a change or a piece, a line headed by the entry shows the natural chain unless it says otherwise.
UniProt O95070: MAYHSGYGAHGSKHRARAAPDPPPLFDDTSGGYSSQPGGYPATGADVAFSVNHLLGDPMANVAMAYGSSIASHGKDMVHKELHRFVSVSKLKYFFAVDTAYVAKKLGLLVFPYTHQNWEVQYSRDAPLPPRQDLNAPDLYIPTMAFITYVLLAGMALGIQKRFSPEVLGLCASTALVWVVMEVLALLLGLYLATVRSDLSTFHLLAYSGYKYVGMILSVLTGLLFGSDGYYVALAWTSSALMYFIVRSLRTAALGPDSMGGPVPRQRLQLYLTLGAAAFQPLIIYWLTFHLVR
UniProt Q9NUE0: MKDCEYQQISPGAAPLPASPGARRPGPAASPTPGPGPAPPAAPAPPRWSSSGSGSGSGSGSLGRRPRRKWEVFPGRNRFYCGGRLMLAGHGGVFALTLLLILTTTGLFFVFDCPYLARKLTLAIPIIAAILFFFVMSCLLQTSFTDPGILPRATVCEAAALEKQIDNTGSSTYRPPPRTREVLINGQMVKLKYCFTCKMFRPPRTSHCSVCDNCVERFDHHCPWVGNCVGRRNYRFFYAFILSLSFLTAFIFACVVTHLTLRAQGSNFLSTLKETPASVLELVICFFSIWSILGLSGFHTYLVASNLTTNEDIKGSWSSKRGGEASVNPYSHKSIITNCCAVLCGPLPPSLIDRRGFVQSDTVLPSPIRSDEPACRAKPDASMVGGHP
UniProt Q86U90: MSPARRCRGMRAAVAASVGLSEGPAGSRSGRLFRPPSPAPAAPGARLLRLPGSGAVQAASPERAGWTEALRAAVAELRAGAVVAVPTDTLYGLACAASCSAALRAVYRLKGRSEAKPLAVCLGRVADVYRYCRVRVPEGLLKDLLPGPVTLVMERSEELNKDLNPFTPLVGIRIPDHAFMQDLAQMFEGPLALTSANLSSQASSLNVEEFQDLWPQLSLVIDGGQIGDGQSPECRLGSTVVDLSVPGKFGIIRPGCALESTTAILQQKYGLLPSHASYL
UniProt Q969M3: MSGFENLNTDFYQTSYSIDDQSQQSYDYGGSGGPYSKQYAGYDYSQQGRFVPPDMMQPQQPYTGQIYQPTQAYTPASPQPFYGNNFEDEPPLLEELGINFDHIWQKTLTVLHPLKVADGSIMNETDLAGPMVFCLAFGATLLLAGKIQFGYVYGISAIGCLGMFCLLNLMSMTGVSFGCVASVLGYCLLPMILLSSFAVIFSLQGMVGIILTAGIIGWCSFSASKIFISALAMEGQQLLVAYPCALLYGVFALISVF
UniProt P63104: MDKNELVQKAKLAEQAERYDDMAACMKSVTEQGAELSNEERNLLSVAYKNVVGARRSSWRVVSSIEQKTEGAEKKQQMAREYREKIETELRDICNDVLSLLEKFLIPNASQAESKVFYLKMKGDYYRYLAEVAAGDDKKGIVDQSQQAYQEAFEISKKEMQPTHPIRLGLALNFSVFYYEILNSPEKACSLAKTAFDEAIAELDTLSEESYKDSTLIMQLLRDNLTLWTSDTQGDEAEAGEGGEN
UniProt Q04917: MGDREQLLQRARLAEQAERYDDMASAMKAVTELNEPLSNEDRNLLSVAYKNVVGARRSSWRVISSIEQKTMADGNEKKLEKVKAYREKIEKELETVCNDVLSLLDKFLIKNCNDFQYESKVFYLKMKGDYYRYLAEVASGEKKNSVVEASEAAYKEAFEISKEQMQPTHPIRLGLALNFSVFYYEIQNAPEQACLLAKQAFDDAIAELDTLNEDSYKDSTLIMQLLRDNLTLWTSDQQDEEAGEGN
UniProt P62699: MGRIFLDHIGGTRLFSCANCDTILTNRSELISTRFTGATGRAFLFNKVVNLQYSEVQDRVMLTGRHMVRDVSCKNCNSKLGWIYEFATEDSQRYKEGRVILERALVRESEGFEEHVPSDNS
UniProt Q96DT7: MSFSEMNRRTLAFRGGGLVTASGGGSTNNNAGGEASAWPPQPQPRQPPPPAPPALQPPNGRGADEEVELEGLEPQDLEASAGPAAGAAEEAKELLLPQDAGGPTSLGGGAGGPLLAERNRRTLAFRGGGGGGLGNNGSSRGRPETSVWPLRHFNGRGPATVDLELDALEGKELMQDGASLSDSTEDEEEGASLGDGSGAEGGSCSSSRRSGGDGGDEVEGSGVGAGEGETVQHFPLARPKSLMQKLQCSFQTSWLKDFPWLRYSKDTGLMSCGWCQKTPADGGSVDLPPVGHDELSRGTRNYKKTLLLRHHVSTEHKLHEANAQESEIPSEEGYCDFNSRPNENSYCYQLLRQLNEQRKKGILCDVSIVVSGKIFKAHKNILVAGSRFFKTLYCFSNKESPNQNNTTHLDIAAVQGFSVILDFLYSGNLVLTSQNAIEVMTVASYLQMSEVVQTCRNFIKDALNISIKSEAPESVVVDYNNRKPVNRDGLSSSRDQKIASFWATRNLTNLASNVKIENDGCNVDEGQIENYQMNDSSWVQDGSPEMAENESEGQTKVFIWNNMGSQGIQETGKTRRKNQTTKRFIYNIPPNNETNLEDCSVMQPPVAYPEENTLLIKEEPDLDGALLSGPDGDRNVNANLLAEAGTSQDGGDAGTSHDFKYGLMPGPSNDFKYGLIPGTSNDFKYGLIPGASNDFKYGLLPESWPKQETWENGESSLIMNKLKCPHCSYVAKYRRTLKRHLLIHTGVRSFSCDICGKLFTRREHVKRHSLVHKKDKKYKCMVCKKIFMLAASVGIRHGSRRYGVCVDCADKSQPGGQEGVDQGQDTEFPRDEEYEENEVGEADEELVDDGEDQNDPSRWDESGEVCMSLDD
UniProt Q6FIF0: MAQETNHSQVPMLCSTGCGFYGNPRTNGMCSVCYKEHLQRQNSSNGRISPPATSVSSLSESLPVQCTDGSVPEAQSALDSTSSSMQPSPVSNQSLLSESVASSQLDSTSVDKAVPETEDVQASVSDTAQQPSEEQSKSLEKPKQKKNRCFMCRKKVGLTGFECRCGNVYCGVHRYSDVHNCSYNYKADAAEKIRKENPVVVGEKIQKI
UniProt P18887, whole entry, looked up: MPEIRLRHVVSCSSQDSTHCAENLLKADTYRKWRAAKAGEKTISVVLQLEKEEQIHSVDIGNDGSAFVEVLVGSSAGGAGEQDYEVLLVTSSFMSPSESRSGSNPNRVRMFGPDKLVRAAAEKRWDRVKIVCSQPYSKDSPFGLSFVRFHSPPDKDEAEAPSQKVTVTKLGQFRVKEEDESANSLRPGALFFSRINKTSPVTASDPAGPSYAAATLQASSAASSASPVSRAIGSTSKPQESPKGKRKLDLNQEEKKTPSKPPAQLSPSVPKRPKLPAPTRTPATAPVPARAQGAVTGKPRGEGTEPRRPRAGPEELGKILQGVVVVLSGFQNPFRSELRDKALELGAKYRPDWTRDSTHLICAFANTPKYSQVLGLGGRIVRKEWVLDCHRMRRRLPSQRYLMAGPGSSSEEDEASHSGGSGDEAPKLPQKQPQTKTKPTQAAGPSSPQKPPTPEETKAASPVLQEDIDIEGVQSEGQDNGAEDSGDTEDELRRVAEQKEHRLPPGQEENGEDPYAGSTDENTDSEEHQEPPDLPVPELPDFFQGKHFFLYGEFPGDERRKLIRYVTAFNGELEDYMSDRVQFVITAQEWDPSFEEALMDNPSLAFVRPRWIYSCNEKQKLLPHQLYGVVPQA
UniProt Q9ULJ3: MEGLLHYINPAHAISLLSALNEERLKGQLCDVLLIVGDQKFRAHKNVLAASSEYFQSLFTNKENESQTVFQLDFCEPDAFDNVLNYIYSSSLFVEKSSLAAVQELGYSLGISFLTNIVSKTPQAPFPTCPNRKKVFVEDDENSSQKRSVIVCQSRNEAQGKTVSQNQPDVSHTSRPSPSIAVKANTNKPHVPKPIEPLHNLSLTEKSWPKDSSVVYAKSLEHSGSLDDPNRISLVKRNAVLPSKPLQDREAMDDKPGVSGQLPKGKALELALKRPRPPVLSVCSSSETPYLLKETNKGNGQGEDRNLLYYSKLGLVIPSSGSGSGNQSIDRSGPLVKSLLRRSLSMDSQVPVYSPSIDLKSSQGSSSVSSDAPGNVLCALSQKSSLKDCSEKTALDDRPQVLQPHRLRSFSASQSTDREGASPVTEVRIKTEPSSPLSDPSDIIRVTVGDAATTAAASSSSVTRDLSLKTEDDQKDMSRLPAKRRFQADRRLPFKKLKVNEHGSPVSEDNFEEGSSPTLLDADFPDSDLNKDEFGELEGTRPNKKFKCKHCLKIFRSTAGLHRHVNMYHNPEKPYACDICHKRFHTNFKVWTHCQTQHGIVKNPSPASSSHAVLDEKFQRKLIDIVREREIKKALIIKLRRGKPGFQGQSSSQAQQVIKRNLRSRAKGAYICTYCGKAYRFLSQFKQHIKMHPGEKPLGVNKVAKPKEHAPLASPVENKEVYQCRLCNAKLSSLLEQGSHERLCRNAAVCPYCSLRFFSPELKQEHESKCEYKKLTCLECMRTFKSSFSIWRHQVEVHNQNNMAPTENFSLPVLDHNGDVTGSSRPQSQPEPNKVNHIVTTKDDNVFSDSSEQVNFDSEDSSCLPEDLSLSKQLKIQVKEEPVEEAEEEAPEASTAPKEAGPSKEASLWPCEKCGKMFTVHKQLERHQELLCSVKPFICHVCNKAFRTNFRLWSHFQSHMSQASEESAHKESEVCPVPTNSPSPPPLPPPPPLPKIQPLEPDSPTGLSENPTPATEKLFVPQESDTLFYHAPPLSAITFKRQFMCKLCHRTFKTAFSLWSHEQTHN
UniProt Q9Y2K1: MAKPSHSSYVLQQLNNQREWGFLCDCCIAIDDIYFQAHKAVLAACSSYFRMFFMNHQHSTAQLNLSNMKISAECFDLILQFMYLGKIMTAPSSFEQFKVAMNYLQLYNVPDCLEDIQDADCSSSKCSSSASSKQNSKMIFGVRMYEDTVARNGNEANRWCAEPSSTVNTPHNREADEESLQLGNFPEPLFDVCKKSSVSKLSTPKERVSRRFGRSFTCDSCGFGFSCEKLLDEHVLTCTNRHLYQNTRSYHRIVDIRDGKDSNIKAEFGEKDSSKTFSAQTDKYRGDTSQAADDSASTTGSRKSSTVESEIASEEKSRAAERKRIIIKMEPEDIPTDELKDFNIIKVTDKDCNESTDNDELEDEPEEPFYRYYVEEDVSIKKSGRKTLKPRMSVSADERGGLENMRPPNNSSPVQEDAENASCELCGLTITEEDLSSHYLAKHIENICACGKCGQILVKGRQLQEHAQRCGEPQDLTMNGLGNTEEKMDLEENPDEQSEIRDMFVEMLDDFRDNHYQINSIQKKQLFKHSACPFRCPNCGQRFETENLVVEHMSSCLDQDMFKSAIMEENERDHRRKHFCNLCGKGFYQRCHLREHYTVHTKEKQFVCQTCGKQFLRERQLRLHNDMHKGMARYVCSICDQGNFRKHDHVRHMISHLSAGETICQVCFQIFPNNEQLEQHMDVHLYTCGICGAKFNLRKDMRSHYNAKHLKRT
UniProt Q9HBF4: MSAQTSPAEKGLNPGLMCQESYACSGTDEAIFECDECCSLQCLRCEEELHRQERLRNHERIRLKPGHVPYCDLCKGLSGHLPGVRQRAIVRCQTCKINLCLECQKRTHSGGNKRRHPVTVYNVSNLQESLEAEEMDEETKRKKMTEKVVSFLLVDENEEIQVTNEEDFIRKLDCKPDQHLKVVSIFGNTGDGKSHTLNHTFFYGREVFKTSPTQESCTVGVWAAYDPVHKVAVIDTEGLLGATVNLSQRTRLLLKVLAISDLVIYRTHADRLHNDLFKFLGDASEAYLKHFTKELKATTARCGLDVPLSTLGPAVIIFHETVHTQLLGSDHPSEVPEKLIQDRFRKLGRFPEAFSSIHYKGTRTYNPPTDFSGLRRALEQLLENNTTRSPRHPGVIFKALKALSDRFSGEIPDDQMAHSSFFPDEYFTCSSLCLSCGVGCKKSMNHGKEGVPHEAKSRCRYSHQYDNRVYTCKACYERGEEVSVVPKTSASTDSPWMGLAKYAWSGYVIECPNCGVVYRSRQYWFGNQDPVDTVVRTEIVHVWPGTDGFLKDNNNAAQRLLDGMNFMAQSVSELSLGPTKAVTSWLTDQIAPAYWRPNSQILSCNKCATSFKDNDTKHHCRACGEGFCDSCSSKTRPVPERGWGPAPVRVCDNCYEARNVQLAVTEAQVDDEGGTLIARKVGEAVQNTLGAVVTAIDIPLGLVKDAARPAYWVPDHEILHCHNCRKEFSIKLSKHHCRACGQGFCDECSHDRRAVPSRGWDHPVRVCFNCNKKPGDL
UniProt Q8NCN2: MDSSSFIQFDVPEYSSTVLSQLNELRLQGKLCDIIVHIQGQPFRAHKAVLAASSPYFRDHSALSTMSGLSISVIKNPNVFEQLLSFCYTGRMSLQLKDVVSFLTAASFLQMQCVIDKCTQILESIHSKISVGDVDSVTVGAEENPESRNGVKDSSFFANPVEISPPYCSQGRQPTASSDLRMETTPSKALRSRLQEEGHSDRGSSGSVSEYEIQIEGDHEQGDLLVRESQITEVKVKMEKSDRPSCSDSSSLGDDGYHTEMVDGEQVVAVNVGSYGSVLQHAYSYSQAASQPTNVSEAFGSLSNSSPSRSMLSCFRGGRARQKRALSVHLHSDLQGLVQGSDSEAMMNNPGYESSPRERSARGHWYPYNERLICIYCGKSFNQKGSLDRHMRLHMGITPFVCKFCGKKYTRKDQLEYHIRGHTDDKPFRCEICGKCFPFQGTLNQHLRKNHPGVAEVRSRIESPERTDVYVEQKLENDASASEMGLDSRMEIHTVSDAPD

Legend:
Test in all cases: log2 fold change, soluble protein after heating vs DMSO (PISA); higher = thermal stabilisation; K562 lysate, 10 uM; active = over 0.2 and 3.5 SD of the protein, either way, in both replicates (recomputed)
lapatinib = compound: CS(=O)(=O)CCNCc1ccc(-c2ccc3ncnc(Nc4ccc(OCc5cccc(F)c5)c(Cl)c4)c3c2)o1 [lapatinib]
Procedure, shortened: (§1)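 K562 pellets were dounce-homogenised in PBS pH 7.4 with 1 mM MgCl2, and the crude extract at 1 mg/mL protein was treated with 10 μM compound for 30 min. Aliquots were heated for 3 min across 48°C-58°C, pooled, and brought to 0.5% NP-40 at 4°C; soluble protein was the supernatant after 21,000xg for 90 min. Soluble protein was quantified by TMTpro 16plex LC-MS/MS with channel sums equalised, and reported as log2 fold change in thermal stability against DMSO controls, with values from duplicates.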

pictilisib = compound: CS(=O)(=O)N1CCN(Cc2cc3nc(-c4cccc5[nH]ncc45)nc(N4CCOCC4)c3s2)CC1 [pictilisib]
Procedure, shortened: as §1

crizotinib = compound: C[C@@H](Oc1cc(-c2cnn(C3CCNCC3)c2)cnc1N)c1c(Cl)ccc(F)c1Cl [crizotinib]
Procedure, shortened: as §1

[1] = compound: C[C@H](C1=CC=C(C=C1)C(=O)NC2=C3C=CNC3=NC=C2)N
Procedure, shortened: as §1

duvelisib = compound: C[C@H](Nc1ncnc2nc[nH]c12)c1cc2cccc(Cl)c2c(=O)n1-c1ccccc1 [duvelisib]
Procedure, shortened: as §1

gandotinib = compound: Cc1cc(Nc2cc(CN3CCOCC3)c3nc(C)c(Cc4ccc(Cl)cc4F)n3n2)n[nH]1 [gandotinib]
Procedure, shortened: as §1

tozasertib = compound: Cc1cc(Nc2cc(N3CCN(C)CC3)nc(Sc3ccc(NC(=O)C4CC4)cc3)n2)n[nH]1 [tozasertib]
Procedure, shortened: as §1

doramapimod = compound: Cc1ccc(-n2nc(C(C)(C)C)cc2NC(=O)Nc2ccc(OCCN3CCOCC3)c3ccccc23)cc1 [doramapimod]
Procedure, shortened: as §1

bafetinib = compound: Cc1ccc(NC(=O)c2ccc(CN3CC[C@H](N(C)C)C3)c(C(F)(F)F)c2)cc1Nc1nccc(-c2cncnc2)n1 [bafetinib]
Procedure, shortened: as §1

[2] = compound: Cc1cccc(CC(=O)N2CCc3c2ccc(-c2cn(C)c4ncnc(N)c24)c3F)n1
Procedure, shortened: as §1

Measured: log2 fold change

ZFYVE16 (UniProt Q7Z3T8)
inactive: lapatinib 0.019 | pictilisib 0.004 | crizotinib -0.004 | [1] -0.084 | duvelisib 0.001 | gandotinib 0.016 | tozasertib -0.012 | doramapimod -0.004 | bafetinib -0.027 | [2] 0.078

ZC3H11A (UniProt O75152)
inactive: lapatinib -0.09 | pictilisib -0.046 | crizotinib -0.071 | [1] 0.222 | duvelisib 0.013 | gandotinib -0.12 | tozasertib 0.016 | doramapimod 0.013 | bafetinib -0.113 | [2] -0.134

ZBTB7A (UniProt O95365)
inactive: lapatinib -0.155 | pictilisib 0.022 | crizotinib -0.236 | [1] -0.084 | duvelisib 0.014 | gandotinib 0.045 | tozasertib 0.236 | doramapimod 0.043 | bafetinib 0.165 | [2] 0.004

YOD1 (UniProt Q5VVQ6)
inactive: lapatinib 0 | pictilisib -0.026 | crizotinib -0.023 | [1] -0.017 | duvelisib -0.038 | gandotinib -0.005 | tozasertib -0.003 | doramapimod 0.015 | bafetinib -0.062 | [2] 0.021

YIF1A (UniProt O95070)
inactive: lapatinib -0.036 | pictilisib 0.128 | crizotinib 0.017 | [1] 0.023 | duvelisib 0.034 | gandotinib 0.061 | tozasertib -0.022 | doramapimod -0.051 | bafetinib -0.066 | [2] -0.005

YTHDC1 (UniProt Q96MU7)
inactive: lapatinib -0.084 | pictilisib 0.061 | crizotinib 0.005 | [1] 0.048 | duvelisib 0.068 | gandotinib 0.136 | tozasertib 0.19 | doramapimod -0.043 | bafetinib -0.012 | [2] 0.148

ZDHHC18 (UniProt Q9NUE0)
inactive: lapatinib 0.029 | pictilisib 0.078 | crizotinib -0.023 | [1] -0.017 | duvelisib 0.013 | gandotinib -0.149 | tozasertib -0.061 | doramapimod 0.054 | bafetinib -0.068 | [2] -0.11

YRDC (UniProt Q86U90)
inactive: lapatinib -0.028 | pictilisib -0.038 | crizotinib -0.047 | [1] -0.039 | duvelisib 0.018 | gandotinib 0.055 | tozasertib 0.027 | doramapimod 0.035 | bafetinib 0.022 | [2] 0.01

YIPF5 isoform 3 (UniProt Q969M3)
inactive: lapatinib 0.016 | pictilisib 0.029 | crizotinib -0.063 | [1] -0.048 | duvelisib 0.035 | gandotinib 0.006 | tozasertib -0.038 | doramapimod 0.039 | bafetinib -0.014 | [2] 0.156

YARS2 (UniProt Q9Y2Z4)
inactive: lapatinib 0.005 | pictilisib -0.002 | crizotinib -0.022 | [1] -0.05 | duvelisib -0.014 | gandotinib 0.028 | tozasertib -0.013 | doramapimod 0.016 | bafetinib 0.083 | [2] 0.01

YWHAZ (UniProt P63104)
inactive: lapatinib 0.014 | pictilisib 0.035 | crizotinib 0.009 | [1] -0.013 | duvelisib 0.021 | gandotinib 0.01 | tozasertib -0.013 | doramapimod 0.022 | bafetinib 0.074 | [2] -0.009

YWHAH (UniProt Q04917)
inactive: lapatinib -0.016 | pictilisib 0.044 | crizotinib 0.084 | [1] 0.21 | duvelisib -0.008 | gandotinib -0.079 | tozasertib 0 | doramapimod -0.028 | bafetinib 0.063 | [2] -0.094

XPO7 (UniProt Q9UIA9)
inactive: lapatinib -0.016 | pictilisib -0.02 | crizotinib -0.012 | [1] -0.04 | duvelisib 0.024 | gandotinib -0.038 | tozasertib -0.005 | doramapimod 0.002 | bafetinib -0.036 | [2] 0.077

YIPF4 (UniProt Q9BSR8)
inactive: lapatinib -0.017 | pictilisib 0.035 | crizotinib -0.021 | [1] -0.007 | duvelisib 0.007 | gandotinib 0.026 | tozasertib -0.011 | doramapimod 0.025 | bafetinib -0.031 | [2] 0.051

YPEL5 (UniProt P62699)
inactive: lapatinib -0.089 | pictilisib 0.054 | crizotinib -0.132 | [1] 0.032 | duvelisib 0.004 | gandotinib -0.086 | tozasertib 0.037 | doramapimod 0.1 | bafetinib -0.052 | [2] -0.062

YARS (UniProt P54577)
inactive: lapatinib -0.029 | pictilisib 0.01 | crizotinib -0.025 | [1] -0.014 | duvelisib -0.021 | gandotinib -0.057 | tozasertib -0.023 | doramapimod -0.02 | bafetinib 0.016 | [2] -0.002

ZBTB10 (UniProt Q96DT7)
inactive: lapatinib 0.09 | pictilisib -0.05 | crizotinib -0.056 | [1] -0.016 | duvelisib -0.016 | gandotinib 0.089 | tozasertib 0.076 | doramapimod 0.011 | bafetinib 0.093 | [2] 0.189

ZC3H18 (UniProt E7ERS3)
inactive: lapatinib -0.007 | pictilisib -0.016 | crizotinib 0.021 | [1] -0.029 | duvelisib -0.012 | gandotinib 0.072 | tozasertib 0.031 | doramapimod 0.117 | bafetinib -0.028 | [2] 0.007

ZFAND6 (UniProt Q6FIF0)
inactive: lapatinib 0.027 | pictilisib 0.018 | crizotinib -0.051 | [1] -0.096 | duvelisib 0.008 | gandotinib 0.033 | tozasertib -0.037 | doramapimod 0.062 | bafetinib 0.004 | [2] 0.005

XRCC1 (UniProt P18887)
inactive: lapatinib -0.018 | pictilisib -0.018 | crizotinib -0.01 | [1] 0.111 | duvelisib -0.019 | gandotinib -0.154 | tozasertib 0.004 | doramapimod -0.002 | bafetinib 0.001 | [2] -0.059

ZBTB21 (UniProt Q9ULJ3)
inactive: lapatinib -0.001 | pictilisib -0.021 | crizotinib 0.091 | [1] -0.095 | duvelisib -0.009 | gandotinib 0.067 | tozasertib -0.013 | doramapimod 0.011 | bafetinib -0.005 | [2] 0.1

ZC3H4 (UniProt Q9UPT8)
inactive: lapatinib -0.02 | pictilisib -0.004 | crizotinib -0.017 | [1] 0.017 | duvelisib 0.008 | gandotinib -0.012 | tozasertib 0.012 | doramapimod -0.012 | bafetinib 0.004 | [2] 0.031

ZC3H12C isoform 2 (UniProt Q9C0D7)
inactive: lapatinib -0.04 | pictilisib -0.251 | crizotinib -0.107 | [1] -0.005 | duvelisib 0.137 | gandotinib -0.086 | doramapimod -0.019 | bafetinib 0.058 | [2] -0.124

ZBTB1 (UniProt Q9Y2K1)
inactive: lapatinib -0.083 | pictilisib -0.096 | [1] -0.071 | gandotinib 0.087 | tozasertib -0.171 | bafetinib -0.29 | [2] -0.182

ZADH2 (UniProt Q8N4Q0)
inactive: lapatinib -0.231 | pictilisib -0.028 | crizotinib -0.057 | [1] -0.163 | duvelisib 0.1 | gandotinib 0.014 | doramapimod -0.052 | bafetinib -0.118 | [2] 0.097

ZBTB40 (UniProt Q9NUA8)
inactive: lapatinib 0.022 | crizotinib 0.036 | [1] -0.249 | duvelisib 0.018 | gandotinib 0.219 | doramapimod -0.02 | [2] 0.004

ZDHHC14 (UniProt Q8IZN3)
inactive: lapatinib -0.065 | crizotinib 0.074 | [1] -0.221 | duvelisib -0.002 | gandotinib -0.321 | tozasertib 0.048 | doramapimod -0.029 | [2] -0.021

ZFYVE1 (UniProt Q9HBF4)
inactive: lapatinib -0.008 | pictilisib 0.063 | crizotinib -0.202 | [1] -0.017 | duvelisib -0.015 | gandotinib -0.04 | doramapimod 0.206 | bafetinib -0.208 | [2] 0.219

Random excerpt: two records from the list
ZFYVE1 (UniProt Q9HBF4)
inactive: lapatinib -0.008 | pictilisib 0.063 | crizotinib -0.202 | [1] -0.017 | duvelisib -0.015 | gandotinib -0.04 | doramapimod 0.206 | bafetinib -0.208 | [2] 0.219

ZADH2 (UniProt Q8N4Q0)
inactive: lapatinib -0.231 | pictilisib -0.028 | crizotinib -0.057 | [1] -0.163 | duvelisib 0.1 | gandotinib 0.014 | doramapimod -0.052 | bafetinib -0.118 | [2] 0.097

The listing continues:

ZBTB14 (UniProt O43829)
inactive: lapatinib -0.021 | pictilisib -0.023 | crizotinib 0.081 | [1] -0.132 | duvelisib 0.046 | gandotinib 0.076 | doramapimod -0.155 | bafetinib -0.127 | [2] -0.017

ZBTB34 (UniProt Q8NCN2)
inactive: lapatinib 0.043 | pictilisib -0.244 | duvelisib 0.082 | bafetinib -0.217

ZCCHC9 (UniProt Q8N567)
inactive: lapatinib -0.102 | pictilisib 0.076 | crizotinib -0.075 | duvelisib 0.034 | tozasertib 0.016 | doramapimod -0.039 | bafetinib 0.027

ZFHX4 isoform 5 (UniProt Q86UP3)
inactive: lapatinib -0.376 | pictilisib 0.072 | crizotinib -0.001 | doramapimod -0.281 | bafetinib -0.111

ZCRB1 (UniProt Q8TBF4)
inactive: lapatinib -0.014 | crizotinib 0.075 | [1] 0.003 | duvelisib 0.064 | gandotinib 0.099 | doramapimod -0.135 | [2] -0.056
